These are yes or no findings as the source states them, for the method shown. For some of these results: Binding seen in cells or lysates may run through a third protein. Some results given as binding are weak or reduced against the parent protein; the word gives no strength.

Amino acid sequences for entries named in this document (tags omitted). Residues count along the entry.
UniProt A2AVA0, residues 18-3567: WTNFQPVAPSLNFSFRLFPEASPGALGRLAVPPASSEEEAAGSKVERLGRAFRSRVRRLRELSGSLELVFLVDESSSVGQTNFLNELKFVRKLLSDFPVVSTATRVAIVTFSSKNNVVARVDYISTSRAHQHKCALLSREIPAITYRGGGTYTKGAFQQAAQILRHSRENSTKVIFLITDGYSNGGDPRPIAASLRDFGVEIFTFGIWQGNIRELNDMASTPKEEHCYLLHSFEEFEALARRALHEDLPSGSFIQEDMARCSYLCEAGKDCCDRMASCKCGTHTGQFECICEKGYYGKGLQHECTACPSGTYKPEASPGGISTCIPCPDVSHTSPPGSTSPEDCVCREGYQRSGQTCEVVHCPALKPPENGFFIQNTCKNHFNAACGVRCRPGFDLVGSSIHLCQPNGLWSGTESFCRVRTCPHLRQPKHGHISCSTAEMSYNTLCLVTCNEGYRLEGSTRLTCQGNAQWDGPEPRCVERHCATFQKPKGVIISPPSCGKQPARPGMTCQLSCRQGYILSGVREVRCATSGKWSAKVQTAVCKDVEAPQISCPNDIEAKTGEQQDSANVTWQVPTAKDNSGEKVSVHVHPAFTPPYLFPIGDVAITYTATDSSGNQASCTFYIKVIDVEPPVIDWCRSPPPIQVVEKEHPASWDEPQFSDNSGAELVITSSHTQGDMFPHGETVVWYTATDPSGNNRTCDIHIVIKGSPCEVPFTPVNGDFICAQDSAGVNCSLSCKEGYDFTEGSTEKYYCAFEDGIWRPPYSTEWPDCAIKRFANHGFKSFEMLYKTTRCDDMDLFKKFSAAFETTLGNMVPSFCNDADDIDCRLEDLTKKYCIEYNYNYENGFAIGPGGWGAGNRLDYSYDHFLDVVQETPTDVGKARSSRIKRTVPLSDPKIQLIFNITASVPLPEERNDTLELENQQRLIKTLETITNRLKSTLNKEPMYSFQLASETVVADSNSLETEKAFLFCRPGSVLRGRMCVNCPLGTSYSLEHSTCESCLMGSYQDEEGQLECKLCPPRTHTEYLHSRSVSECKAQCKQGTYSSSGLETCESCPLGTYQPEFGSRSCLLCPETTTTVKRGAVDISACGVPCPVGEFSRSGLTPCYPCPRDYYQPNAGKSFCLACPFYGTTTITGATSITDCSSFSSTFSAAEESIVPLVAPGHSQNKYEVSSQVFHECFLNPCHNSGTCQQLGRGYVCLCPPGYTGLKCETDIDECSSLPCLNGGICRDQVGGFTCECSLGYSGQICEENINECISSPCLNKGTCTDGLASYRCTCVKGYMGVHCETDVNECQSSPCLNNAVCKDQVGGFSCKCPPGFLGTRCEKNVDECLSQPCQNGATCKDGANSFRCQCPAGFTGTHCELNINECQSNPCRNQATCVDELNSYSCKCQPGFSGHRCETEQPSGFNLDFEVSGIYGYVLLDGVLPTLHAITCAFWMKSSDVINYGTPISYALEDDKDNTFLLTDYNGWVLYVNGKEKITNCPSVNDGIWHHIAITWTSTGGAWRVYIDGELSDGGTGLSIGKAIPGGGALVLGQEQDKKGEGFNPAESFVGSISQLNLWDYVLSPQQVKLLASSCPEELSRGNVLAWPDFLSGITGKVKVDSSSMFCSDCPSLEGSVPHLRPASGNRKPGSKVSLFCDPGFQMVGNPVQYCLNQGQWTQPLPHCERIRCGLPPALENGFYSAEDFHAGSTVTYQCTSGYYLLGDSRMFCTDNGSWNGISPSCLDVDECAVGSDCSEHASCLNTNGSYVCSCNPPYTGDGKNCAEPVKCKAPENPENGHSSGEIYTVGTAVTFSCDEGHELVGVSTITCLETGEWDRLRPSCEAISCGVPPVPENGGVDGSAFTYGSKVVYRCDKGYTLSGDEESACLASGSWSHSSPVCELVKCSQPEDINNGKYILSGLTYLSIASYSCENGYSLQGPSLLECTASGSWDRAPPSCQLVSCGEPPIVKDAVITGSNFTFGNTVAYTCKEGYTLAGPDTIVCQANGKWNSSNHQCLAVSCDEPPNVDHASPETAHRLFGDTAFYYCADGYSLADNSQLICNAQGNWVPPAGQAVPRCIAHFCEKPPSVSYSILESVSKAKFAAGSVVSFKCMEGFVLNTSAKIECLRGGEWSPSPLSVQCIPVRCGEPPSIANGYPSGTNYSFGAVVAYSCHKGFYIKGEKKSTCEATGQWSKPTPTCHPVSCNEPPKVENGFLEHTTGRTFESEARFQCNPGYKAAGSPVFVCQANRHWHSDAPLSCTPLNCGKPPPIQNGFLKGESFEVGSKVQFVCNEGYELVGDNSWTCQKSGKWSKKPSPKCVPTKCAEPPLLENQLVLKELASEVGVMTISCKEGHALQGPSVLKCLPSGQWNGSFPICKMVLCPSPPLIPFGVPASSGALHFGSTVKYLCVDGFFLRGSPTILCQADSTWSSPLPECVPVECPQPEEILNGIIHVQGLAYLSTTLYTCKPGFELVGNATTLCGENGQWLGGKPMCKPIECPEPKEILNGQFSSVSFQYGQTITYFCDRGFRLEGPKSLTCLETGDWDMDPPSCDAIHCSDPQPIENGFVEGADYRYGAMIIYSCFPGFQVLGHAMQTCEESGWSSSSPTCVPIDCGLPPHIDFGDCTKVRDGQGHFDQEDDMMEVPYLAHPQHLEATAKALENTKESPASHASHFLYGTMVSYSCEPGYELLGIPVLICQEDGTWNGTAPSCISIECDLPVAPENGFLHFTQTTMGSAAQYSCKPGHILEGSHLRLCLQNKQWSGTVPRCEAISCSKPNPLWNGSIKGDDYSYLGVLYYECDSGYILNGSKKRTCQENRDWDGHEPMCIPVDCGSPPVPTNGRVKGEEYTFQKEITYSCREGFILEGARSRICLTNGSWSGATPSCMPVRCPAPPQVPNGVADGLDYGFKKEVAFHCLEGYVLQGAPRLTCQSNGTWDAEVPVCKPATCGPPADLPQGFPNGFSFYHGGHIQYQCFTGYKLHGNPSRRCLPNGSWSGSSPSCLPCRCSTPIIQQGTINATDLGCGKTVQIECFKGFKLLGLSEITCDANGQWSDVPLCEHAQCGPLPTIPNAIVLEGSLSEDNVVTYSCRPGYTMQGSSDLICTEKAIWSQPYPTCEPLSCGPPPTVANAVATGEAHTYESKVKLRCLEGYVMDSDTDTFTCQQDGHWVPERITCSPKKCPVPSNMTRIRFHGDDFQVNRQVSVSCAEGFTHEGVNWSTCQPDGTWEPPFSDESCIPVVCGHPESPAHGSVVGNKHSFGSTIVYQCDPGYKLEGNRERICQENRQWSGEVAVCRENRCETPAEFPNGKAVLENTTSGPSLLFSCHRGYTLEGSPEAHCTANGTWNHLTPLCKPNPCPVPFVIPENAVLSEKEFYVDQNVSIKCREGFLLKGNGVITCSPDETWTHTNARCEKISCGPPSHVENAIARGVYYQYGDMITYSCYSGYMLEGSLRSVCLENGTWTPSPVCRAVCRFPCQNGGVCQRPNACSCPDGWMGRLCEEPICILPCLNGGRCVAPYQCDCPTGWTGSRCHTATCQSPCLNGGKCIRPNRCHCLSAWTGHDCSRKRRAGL
UniProt P02769, residues 25-607: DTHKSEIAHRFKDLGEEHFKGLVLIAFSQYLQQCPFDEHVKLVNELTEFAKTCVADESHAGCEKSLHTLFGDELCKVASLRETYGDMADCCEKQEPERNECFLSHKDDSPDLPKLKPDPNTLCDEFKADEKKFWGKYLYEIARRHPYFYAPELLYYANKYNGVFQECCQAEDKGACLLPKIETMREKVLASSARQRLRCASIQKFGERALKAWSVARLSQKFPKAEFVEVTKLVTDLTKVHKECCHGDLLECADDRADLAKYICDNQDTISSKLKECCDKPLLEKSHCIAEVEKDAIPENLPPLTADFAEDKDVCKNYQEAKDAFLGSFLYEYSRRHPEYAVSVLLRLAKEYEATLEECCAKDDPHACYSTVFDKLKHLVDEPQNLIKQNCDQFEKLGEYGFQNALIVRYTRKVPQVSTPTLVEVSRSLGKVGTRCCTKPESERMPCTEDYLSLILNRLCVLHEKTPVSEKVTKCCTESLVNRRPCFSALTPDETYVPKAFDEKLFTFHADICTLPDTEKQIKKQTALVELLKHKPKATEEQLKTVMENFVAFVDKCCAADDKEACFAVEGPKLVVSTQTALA
UniProt P11276, residues 33-2477: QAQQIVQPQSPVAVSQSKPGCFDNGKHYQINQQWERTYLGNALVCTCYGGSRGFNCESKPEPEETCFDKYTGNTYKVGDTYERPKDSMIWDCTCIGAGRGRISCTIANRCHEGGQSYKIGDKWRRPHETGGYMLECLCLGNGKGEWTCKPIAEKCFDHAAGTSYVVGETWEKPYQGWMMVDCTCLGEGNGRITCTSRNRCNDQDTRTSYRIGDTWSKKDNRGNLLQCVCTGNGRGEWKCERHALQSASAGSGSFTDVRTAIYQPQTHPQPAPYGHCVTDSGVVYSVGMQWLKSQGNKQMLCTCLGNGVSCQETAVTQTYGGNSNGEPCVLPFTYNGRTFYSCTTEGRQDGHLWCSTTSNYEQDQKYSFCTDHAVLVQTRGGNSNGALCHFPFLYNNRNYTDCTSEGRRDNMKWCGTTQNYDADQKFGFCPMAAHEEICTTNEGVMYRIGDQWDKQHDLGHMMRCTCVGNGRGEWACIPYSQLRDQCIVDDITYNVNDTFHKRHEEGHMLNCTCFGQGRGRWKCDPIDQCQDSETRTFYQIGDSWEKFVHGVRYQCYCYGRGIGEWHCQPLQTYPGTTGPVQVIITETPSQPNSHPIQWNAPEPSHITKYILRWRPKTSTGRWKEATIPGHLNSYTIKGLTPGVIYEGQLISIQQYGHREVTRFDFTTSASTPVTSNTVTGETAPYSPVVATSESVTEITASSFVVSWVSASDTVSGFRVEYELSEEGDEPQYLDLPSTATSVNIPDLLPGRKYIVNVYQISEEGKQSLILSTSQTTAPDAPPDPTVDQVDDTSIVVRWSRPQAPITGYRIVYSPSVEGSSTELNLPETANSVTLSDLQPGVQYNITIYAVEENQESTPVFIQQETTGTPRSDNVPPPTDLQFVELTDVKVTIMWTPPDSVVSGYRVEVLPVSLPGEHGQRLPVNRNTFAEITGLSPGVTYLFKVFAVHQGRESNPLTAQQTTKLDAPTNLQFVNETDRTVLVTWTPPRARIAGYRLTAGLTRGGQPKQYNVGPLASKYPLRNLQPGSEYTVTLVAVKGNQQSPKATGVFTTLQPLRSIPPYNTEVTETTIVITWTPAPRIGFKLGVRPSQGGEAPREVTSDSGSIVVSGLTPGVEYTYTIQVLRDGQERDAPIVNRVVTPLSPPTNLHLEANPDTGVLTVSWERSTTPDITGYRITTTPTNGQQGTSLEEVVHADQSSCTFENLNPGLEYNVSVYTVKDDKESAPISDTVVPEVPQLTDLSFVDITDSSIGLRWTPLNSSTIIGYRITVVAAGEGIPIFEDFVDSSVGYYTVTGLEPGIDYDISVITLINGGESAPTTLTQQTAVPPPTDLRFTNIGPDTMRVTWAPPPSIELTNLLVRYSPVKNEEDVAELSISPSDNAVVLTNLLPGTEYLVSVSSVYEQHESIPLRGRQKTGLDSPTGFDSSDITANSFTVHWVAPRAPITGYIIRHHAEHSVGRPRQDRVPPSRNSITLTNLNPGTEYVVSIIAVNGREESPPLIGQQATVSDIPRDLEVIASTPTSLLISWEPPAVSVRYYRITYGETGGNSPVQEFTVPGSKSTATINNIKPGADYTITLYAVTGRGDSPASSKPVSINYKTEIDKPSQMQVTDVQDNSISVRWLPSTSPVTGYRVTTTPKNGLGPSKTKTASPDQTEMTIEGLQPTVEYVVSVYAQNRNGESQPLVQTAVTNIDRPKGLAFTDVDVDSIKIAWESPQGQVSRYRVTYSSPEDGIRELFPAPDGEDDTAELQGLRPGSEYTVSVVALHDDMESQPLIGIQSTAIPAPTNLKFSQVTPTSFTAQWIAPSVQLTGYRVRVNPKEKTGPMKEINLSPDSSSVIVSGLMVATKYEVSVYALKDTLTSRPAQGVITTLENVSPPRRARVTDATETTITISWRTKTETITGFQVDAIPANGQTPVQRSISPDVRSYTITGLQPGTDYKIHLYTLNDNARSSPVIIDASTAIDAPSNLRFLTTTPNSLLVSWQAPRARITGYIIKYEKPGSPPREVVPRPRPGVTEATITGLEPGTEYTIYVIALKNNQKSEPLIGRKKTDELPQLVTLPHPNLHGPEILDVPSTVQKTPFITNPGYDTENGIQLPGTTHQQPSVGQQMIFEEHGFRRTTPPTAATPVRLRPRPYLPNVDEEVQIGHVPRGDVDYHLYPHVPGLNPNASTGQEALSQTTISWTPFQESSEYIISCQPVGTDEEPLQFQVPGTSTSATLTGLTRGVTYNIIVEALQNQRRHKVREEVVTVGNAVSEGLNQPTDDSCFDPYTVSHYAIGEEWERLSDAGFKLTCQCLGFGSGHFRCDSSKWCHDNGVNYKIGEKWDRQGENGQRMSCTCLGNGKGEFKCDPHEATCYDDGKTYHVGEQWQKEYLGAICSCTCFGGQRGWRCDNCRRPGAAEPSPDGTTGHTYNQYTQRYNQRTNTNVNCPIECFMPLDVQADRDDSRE

Assay [1] deals with recombinant, Myc-tagged SVEP1 (Sushi, von Willebrand factor type A, EGF and pentraxin domain containing 1) (mouse) (UniProt A2AVA0). Nature of the assay: co-IP; confirmation of the proteomic pulldown: Myc-tagged SVEP1 in enriched media of murine VSMCs, anti-c-Myc magnetic beads, aliquot of the beads kept as pulldown fraction for validation; only the target purified.
The target in assay [2] is biotinylated BSA (bovine serum albumin) (bovine) (UniProt P02769). The assay can be described thus: BLI; biotinylated BSA loaded on Octet SA biosensors as negative control; SVEP1 5-180 nM as analyte; 0.01% Tween 20 in calcium-containing DPBS; both purified. In general terms: In BLI a coated tip is dipped into the sample, and binding shifts an interference pattern.
The next assay concerns the target T1, PEAR1ECD (R&D Systems) (UniProt Q5VY43).
T1 sequence: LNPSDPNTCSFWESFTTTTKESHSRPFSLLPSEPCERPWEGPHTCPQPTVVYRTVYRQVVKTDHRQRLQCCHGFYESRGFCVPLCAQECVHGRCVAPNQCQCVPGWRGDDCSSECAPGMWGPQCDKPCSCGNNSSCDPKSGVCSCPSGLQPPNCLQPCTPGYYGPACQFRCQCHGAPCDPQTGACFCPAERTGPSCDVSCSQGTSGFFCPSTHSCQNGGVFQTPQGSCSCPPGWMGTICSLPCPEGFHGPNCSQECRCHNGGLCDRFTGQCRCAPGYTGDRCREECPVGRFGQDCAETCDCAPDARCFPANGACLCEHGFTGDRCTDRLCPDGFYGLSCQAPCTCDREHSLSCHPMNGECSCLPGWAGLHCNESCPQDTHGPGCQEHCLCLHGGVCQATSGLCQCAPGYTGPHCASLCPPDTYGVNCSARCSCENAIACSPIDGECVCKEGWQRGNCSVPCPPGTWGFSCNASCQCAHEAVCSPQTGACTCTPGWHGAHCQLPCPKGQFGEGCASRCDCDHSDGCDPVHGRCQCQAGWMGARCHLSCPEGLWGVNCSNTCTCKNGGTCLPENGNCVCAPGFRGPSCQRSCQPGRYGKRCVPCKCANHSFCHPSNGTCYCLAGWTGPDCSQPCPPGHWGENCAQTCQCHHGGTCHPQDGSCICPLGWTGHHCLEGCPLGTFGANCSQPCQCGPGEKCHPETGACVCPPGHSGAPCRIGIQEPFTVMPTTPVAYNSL
Nature of the assay: co-IP; reciprocal: recombinant SVEP1-Myc and PEAR1ECD mixed in PBS with 1 mg/mL BSA, 0.01% Tween 20, 10 mM Ca2+; 2 ug primary antibody and beads; SVEP1 found with PEAR1ECD; negative control non-specific IgG; immunoblot; both purified.

For assay [3], the target named is recombinant, Myc-tagged SVEP1 (Sushi, von Willebrand factor type A, EGF and pentraxin domain containing 1) (mouse) (UniProt A2AVA0). Nature of the assay: co-IP; recombinant SVEP1-Myc and PEAR1ECD mixed 3:1 by mass (about equimolar) in PBS with 1 mg/mL BSA, 0.01% Tween 20, 10 mM Ca2+, 2 h; PEAR1ECD found with SVEP1; negative control no SVEP1; immunoblot; both purified. (In western blotting, separated proteins are transferred to a membrane and probed.)

As to “Fibronectin (from UniProt P11276 33-2477)”, in assay [1], the binding result is recorded as “binds”.

For “recombinant, Myc-tagged SVEP1 (Sushi, von Willebrand factor type A, EGF and pentraxin domain containing 1) (from UniProt A2AVA0 18-3567)”, the binding entry in assay [2] is reported as “no binding (tested: 5-180 nM SVEP1)”; with PEAR1ECD (R&D Systems), “binds”.

B1: PEAR1ECD (R&D Systems) (domain or fragment, UniProt Q5VY43 21-755)
chain: T1 sequence
Consider B1, for which the binding result in assay [3] is given as “binds”.

For the origin of these results see article PMC9932102, “SVEP1 is an endogenous ligand for the orphan receptor PEAR1” (Nature Communications, 2023).
